# Laboratory results from PubChem BioAssay AID1259415 (National Center for Advancing Translational Sciences (NCATS), 2018).
# Hit rate of the full screen: of about 410,000 compounds, about 18,000 (4.4%) were called active. The shares of active, inactive and inconclusive entries below differ from those in the screen. No stated cut-off is given here; in the data, active means activity change below about -60%; inconclusive means no clear call, values can overlap the other calls; inactive means above about -39%. Where a structure was tested more than once in an assay, its records may differ in their call.
# Test: qHTS Assay for inhibitors of the human cytomegalovirus (HCMV)
# Details: HFF cells, HCMV-luciferase reporter, 72 h; at 57.5 µM; hits give low values
# Summary of the method: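 Human foreskin fibroblasts infected with luciferase-reporter HCMV at MOI 1 PFU/cell, compounds at two doses. Luciferase measured 72 h post infection; normalized to buffer-only basal and Salinomycin (10uM) controls.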
# On the % scale 0 is the no-effect control and ±100 the full control effect.
row,SMILES,"activity change, negative = inhibition"
1,O=C(CCn1c(=S)oc2ccccc21)Nc1cc([N+](=O)[O-])ccc1F,inactive: -18.4%
2,CN(C)CCNC(=O)c1ccc(-n2c(-c3ccccc3)cc3c2CCCCC3)cc1,inconclusive: -45.5%
3,CCCc1c(C)nc(N2CCN(c3ccccc3OC)CC2)[nH]c1=O,inactive: 53.4%
4,Oc1ccc(-c2[nH]ncc2-c2ccc(Cl)cc2)c(O)c1,inactive: -32.9%
5,CNc1nccc(-c2ccc(Cl)cc2)c1C#N,inconclusive: -44.2%
6,CC(C)Oc1ccc(CN2CCc3nc(Nc4ccc5c(c4)OCCO5)ncc3C2)cc1,inconclusive: -40.6%
7,CC1CCN(C(=O)CSc2nc3ccccc3c(=O)n2Cc2ccc3c(c2)OCO3)CC1,inconclusive: -43.4%
8,CCSc1ccccc1C(=O)Nc1nc2ccccc2c(=O)[nH]1,inconclusive: -45.5%
9,CNC(=O)COc1cccc(C(=O)NCc2ccccc2)c1,inconclusive: -56.3%
10,COC(=O)[C@@]12C[C@@H](CC(=O)NCc3cccs3)C(=O)N(Cc3ccccc3)C1=CCC(C)(C)C2,inconclusive: -57.3%
11,CCCSc1nc(N2CCOCC2)c2c(c1C#N)CC(C)(C)SC2,inconclusive: -46.9%
12,COc1ccc(CC(=O)N2N=C(c3ccncc3)CC2(O)C(F)(F)F)cc1 (configuration not stated),inconclusive: -40.2%
13,COc1ccc(S(=O)(=O)c2c(Nc3c(C)cccc3C)sc(C(=O)c3ccc(F)cc3)c2N)cc1,inconclusive: -43.4%
14,COC(=O)c1ccccc1NC(=O)C1=CC(c2ccc3c(c2)OCO3)=NS(=O)(=O)N1C,inactive: 17.6%
15,COCCn1c(=N)c(S(=O)(=O)c2ccc(F)cc2)cc2c(=O)n3ccccc3nc21,inactive: 5.98%
16,CCCn1c2ccccc2c2cnn(CC(=O)NC3CCN(Cc4ccccc4)CC3)c(=O)c21,inconclusive: -47.5%
17,O=C(O)C(c1ccccc1)N1C(=O)c2cccc3cccc(c23)C1=O (configuration not stated),inactive: 15.8%
18,CCOC(=O)c1c(NC(=O)CN2CCCCC2)sc2c1CCN(C(=O)OCC)C2,active: -60%
19,COC(C(=O)Nc1cc([N+](=O)[O-])ccc1C)c1ccccc1 (configuration not stated),inconclusive: -54%
20,Cc1cccc2sc(NC(=O)C3CCN(S(=O)(=O)c4cc([N+](=O)[O-])ccc4Cl)CC3)nc12,inactive: -16.7%
21,O=C(O)CCCN1C(=O)/C(=C/c2cn(-c3ccccc3)nc2-c2cccs2)SC1=S,inconclusive: -42.8%

row,SMILES,"activity change, negative = inhibition"
1,C[N+](C)(C)CCOC(=O)CCC(=O)OCC[N+](C)(C)C,active: -76.7%
2,O=C(Nc1ccc(C(=O)N2CCCCC2)cc1)C1=CSCCO1,inactive: -19.7%
3,O=C(C1CCN(Cc2ccc(F)cc2)CC1)N1CCN(C/C=C/c2ccccc2)CC1,inconclusive: -50%
4,Cc1ccc(-n2c(C)cc(C3=NNC(=NC4CC4)SC3)c2C)cc1C,active: -99.5%
5,CCCc1nc(NCc2ccncc2)c2nnn(Cc3ccccc3F)c2n1,inactive: -23.9%
6,Cc1oc(-c2ccccc2Cl)nc1CSCC(=O)N1CCCC1,active: -77.6%
7,O=C(N/N=C/c1cccc(Br)c1)c1ccc(N2CCCC2=O)cc1,inconclusive: -48.3%
8,CC1CCc2sc(C(=O)NN=C3CCCC3)cc2C1 (configuration not stated),inconclusive: -45.5%
9,C/C(N)=C(/C#N)C(=O)CSc1nc2ccccc2c(=O)n1Cc1ccc(C)cc1,inconclusive: -51.2%
10,CCOC(=O)COc1cccc2c(=O)n(CC(=O)NCc3ccc(F)cc3)ccc12,inconclusive: 0%
11,COc1ccc([N+](=O)[O-])cc1Nc1ncnc2ccccc12,active: -61.9%
12,O=C(CCN1CCCCCC1)c1ccccc1,inactive: 40.1%
13,CCC(=O)NC(Nc1sc2c(c1C(=O)OC)CCN(C)C2)(C(F)(F)F)C(F)(F)F,active: -101%
14,COc1ccc(N2C(=O)c3ccccc3S2(=O)=O)cc1,inconclusive: -43.1%
15,COc1ccc(C2=NOC(Cn3nc(C(=O)NCc4ccco4)cc3-c3ccccc3)C2)cc1 (configuration not stated),inactive: -16.7%
16,O=C(CCN1C(=O)c2ccc([N+](=O)[O-])cc2C1=O)Nc1cccc(O)c1,inconclusive: -55.9%
17,COc1cc(/C=N/NS(=O)(=O)c2ccc(C)cc2)ccc1OCc1cccc(C(=O)O)c1,inactive: 57.3%
18,CC(C)C[C@H]1CNC(=S)N1CC1CCCN1C[C@H](CC(C)C)N1C[C@H](Cc2ccc(O)cc2)N(CC2CCCCC2)C1=S (some centres not stated),active: -98.4%
19,C=CC1=C(C(=O)O)N2C(=O)[C@@H](NC(=O)/C(=N\O)c3csc(N)n3)[C@H]2SC1 (stereo in doubt),inconclusive: -57.1%
20,C=CCOc1c(Br)cc(CNc2nccs2)cc1OC,inconclusive: -52%
21,CCOC(=O)c1c(-c2ccccc2)csc1NC(=O)/C(C#N)=C\c1ccc(O)c(OC)c1,inconclusive: -55.7%

# A few values from the list.
# For activity change, negative = inhibition, `COc1ccc(C2=NOC(Cn3nc(C(=O)NCc4ccco4)cc3-c3ccccc3)C2)cc1` (configuration not stated) reads inactive: -16.7%
# For activity change, negative = inhibition, `CCC(=O)NC(Nc1sc2c(c1C(=O)OC)CCN(C)C2)(C(F)(F)F)C(F)(F)F` reads active: -101%
